Results as given in PMC4154645.
Where two headings read alike, the source gives them in different places. No constants are given. Whether binding was seen depends on the method and setting. Binding seen in cells or lysates may run through a third protein. Some results given as binding are weak or reduced against the parent protein; the word gives no strength. Blank lines part the entries; values can stand above or below the molecule they belong to.

By UniProt entry, the sequences of proteins in these tests, tags left out.
UniProt P63280: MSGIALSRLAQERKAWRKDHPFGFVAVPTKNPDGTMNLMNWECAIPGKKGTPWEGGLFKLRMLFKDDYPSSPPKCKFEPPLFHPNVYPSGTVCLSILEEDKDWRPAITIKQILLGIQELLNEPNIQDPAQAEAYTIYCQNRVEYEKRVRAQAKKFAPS
UniProt Q61313: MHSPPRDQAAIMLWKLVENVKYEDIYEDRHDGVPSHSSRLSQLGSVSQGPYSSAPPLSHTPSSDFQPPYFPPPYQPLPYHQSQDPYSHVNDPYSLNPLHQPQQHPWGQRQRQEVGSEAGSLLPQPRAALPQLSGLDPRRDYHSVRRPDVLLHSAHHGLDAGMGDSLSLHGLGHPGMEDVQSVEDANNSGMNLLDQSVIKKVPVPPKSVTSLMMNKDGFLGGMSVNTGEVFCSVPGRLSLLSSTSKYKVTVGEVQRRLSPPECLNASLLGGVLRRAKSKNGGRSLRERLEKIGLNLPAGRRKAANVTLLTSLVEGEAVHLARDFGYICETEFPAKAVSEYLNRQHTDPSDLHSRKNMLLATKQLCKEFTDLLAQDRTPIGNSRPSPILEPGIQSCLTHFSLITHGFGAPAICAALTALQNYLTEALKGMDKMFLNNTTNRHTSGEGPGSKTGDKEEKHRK

Columns and labels:
Assay in all cases: proximity ligation; in situ PLA (Duolink II fluorescence kit, orange detection reagents) on mHypoE-N25/2 cells fixed in 4% paraformaldehyde; endogenous proteins detected with pairs of primary antibodies; negative controls without primary antibodies
Kctd15 (mouse) = target: T1, Kctd15 (mouse) (UniProt Q8K0E1)
T1 sequence: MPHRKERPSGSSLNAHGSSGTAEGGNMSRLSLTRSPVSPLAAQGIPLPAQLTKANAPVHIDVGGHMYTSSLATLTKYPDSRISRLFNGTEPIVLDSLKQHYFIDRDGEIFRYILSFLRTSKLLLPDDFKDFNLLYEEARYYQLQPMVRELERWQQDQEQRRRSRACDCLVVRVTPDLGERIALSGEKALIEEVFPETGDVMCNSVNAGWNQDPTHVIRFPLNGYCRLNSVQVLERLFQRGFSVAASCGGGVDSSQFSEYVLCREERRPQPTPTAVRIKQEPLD

Ube2i (mouse) [1] = target: Ube2i (mouse) (UniProt P63280)
Ube2i (mouse) [2] = target: Ube2i (mouse) (UniProt P63280); remark: listed apart in the source

binding (Kctd15 (mouse)): binds
binding (Ube2i (mouse) [1]): binds
Molecule: AP-2β (from UniProt Q61313 1-459)

binding (Ube2i (mouse) [2]): binds
B1: Kctd15 (protein, UniProt Q8K0E1 1-283)
chain: T1 sequence
